Results are given in words; binding and its absence hold for the method and conditions named. For part of these data: Binding seen in cells or lysates may run through a third protein. Some binding calls cover weakened binding; strength is not graded here. For part of these data: Where a sequence is shown, tags or fusion partners need not be part of it.
What was measured:
[1] = biological target: T1, Cbf5 (Saccharomyces cerevisiae (endogenous in yeast cells)) (UniProt P33322); test: cryo-EM structure; snR30 snoRNP purified from yeast via wild-type Utp23-Krr1 split baits; two classes at 3.92 and 3.93 Å, maps only
T1 sequence: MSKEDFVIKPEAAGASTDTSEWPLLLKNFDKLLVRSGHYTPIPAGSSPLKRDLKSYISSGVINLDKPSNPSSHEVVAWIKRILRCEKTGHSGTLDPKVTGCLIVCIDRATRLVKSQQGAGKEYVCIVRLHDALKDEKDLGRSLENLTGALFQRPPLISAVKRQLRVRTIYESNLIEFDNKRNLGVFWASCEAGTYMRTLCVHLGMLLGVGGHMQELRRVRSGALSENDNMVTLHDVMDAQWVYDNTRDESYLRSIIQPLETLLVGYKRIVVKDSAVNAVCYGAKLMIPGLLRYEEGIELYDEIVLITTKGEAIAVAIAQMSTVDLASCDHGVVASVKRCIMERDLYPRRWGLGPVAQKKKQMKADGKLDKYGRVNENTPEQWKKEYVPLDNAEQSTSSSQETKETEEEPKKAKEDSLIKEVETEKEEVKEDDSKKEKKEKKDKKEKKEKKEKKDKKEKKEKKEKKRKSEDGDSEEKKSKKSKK

By UniProt entry, the sequences of proteins in these tests, tags left out. Where a name states a change or a piece, a line headed by the entry shows the natural chain unless it says otherwise. Residues count along the entry.
UniProt P25586: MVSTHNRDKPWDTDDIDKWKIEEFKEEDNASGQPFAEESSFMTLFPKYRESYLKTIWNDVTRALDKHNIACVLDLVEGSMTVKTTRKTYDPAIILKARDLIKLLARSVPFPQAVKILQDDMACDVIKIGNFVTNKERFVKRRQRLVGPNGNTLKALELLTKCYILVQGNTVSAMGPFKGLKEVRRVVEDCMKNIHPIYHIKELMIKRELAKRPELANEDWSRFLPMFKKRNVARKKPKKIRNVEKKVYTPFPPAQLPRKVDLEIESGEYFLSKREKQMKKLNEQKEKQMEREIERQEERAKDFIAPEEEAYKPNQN
Krr1ΔC3-FLAG (Saccharomyces cerevisiae (yeast)): residues 1-247 of P25586
UniProt P05756: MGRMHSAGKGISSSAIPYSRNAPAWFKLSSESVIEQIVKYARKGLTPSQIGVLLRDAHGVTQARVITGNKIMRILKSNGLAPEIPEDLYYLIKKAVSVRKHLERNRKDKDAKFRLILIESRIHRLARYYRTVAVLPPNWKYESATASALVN

[2] = biological target: Krr1 (wild type, second bait of the split-tag purification) (Saccharomyces cerevisiae (yeast)) (UniProt P25586); test: co-sedimentation; FLAG eluates of the split-tag purifications on a linear 10–40% sucrose gradient (60 mM Tris-HCl pH 8.0, 50 mM NaCl, 2 mM MgCl2), 16 h at 129,300 × g, 4 °C; fractions by SDS-PAGE, MS and northern blot
[3] = biological target: Krr1ΔC3-FLAG (Saccharomyces cerevisiae (yeast)) (UniProt P25586); test: as above
[4] = biological target: T2, protA-TEV-tagged Utp23 (Saccharomyces cerevisiae (yeast)) (UniProt Q12339); test: as above
T2 sequence: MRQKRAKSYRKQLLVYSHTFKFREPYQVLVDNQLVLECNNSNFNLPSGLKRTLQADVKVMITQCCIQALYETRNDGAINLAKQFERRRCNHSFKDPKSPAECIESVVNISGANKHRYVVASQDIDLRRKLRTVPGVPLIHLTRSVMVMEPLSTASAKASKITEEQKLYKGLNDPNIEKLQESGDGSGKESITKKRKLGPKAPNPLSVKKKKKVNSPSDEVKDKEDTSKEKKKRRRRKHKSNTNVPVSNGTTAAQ

[5] = biological target: T3, Kri1 (Saccharomyces cerevisiae (endogenous in yeast cells)) (UniProt P42846); test: cryo-EM structure; snR30 snoRNP purified from yeast via Utp23-Krr1ΔC3 split baits; State 1 at 2.89 Å
T3 sequence: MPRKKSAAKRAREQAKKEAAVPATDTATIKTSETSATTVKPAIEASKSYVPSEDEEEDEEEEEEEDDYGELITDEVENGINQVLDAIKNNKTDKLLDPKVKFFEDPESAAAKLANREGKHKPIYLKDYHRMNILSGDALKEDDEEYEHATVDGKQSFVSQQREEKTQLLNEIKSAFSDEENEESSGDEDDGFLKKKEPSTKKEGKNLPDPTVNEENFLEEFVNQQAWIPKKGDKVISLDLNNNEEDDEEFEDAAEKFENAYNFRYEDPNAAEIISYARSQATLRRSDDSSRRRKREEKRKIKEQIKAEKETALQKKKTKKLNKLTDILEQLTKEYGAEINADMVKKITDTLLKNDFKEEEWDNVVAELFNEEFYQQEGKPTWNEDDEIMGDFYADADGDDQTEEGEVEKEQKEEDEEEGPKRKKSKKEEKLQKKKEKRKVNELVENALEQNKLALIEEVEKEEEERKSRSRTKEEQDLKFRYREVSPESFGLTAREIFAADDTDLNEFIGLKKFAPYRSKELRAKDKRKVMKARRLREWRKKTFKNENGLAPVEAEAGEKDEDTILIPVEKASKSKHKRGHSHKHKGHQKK

[6] = biological target: T3, Kri1 (Saccharomyces cerevisiae (endogenous in yeast cells)); test: cryo-EM structure; snR30 snoRNP purified from yeast via wild-type Utp23-Krr1 split baits; two classes at 3.92 and 3.93 Å, maps only
[7] = biological target: T4, Gar1 (Saccharomyces cerevisiae (endogenous in yeast cells)) (UniProt P28007); test: cryo-EM structure; snR30 snoRNP purified from yeast via Utp23-Krr1ΔC3 split baits; State 1 at 2.89 Å
T4 sequence: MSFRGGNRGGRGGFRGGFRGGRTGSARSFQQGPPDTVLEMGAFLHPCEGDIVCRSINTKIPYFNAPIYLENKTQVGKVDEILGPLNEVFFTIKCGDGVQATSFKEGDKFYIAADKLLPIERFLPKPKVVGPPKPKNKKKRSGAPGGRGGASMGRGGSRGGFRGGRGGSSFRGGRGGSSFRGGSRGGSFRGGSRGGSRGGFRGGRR

[8] = biological target: T2, protA-TEV-tagged Utp23 (Saccharomyces cerevisiae (yeast)); test: as above
[9] = biological target: T4, Gar1 (Saccharomyces cerevisiae (endogenous in yeast cells)); test: cryo-EM structure; snR30 snoRNP purified from yeast via wild-type Utp23-Krr1 split baits; two classes at 3.92 and 3.93 Å, maps only
[10] = biological target: T2, protA-TEV-tagged Utp23 (Saccharomyces cerevisiae (yeast)); test: as above

Measured: binding

Cbf5 (from UniProt P33322 1-483) (enzyme)
binds: [1] | [2] | [3] | [4]

uS15 (Rps13) (from UniProt P05756 1-151)
binds: [5] | [6] | [4]

B1: Kri1 (protein, UniProt P42846 1-591)
chain: T3 sequence
binds: [7] | [8] | [9] | [10] | [4]

Reference: paper PMC12095548
